Experimental data reported in patent publication US20040096954A1.
These are yes or no findings as the source states them, for the method shown. Some binding calls cover weakened binding; strength is not graded here.

Protein sequences, listed by entry. Tags and fused reporters are not part of them. Lines headed by an entry give the natural chain unless they say otherwise; changes in a name come on top. Residues count along the entry.
UniProt Q92783, residues 210-269: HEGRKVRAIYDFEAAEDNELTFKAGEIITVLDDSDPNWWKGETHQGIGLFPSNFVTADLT

Molecular target: T1, human protein hAMSH (human) (UniProt O95630)
T1 sequence: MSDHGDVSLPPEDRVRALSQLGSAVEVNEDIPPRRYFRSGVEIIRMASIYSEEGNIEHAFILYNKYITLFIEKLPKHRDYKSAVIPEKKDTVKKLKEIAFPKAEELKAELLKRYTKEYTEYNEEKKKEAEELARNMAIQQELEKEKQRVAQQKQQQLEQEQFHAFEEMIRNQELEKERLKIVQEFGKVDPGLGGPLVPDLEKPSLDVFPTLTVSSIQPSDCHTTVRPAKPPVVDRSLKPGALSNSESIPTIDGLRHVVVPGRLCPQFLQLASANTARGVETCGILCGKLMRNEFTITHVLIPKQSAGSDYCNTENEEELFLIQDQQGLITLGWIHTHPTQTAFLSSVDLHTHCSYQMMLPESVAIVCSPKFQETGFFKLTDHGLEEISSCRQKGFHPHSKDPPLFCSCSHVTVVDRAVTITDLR
Test: Far-Western screen of a human cDNA expression library with the GST-STAM SH3 probe

binding: binds
Substance: chimera of the SH3 domain of STAM and glutathione-S-transferase (GST) (from UniProt Q92783 210-269)
